The results in this text go back to publication PMC4735526.

Amino acid sequences for entries named in this document (tags omitted). Residues count along the entry.
UniProt Q07666, 97-260: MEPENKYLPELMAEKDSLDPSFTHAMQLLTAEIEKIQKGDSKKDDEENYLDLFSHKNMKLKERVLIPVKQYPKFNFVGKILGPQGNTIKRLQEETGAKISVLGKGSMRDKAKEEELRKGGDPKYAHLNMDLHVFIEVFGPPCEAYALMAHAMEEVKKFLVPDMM

Series [1] deals with Sam68 QUA1-KH (UniProt Q07666). Put plainly: fluorescence polarization. As to conditions: 0.1% beta-mercaptoethanol, protein 0-200 uM, temperature not stated, recombinant protein, protein details: His tag (Ni-NTA) removed by TEV, label: fluorescein; for Kd: 10 mM Tris pH 7, 100 mM NaCl, 0.2 uM fluorescein-labelled RNA. (Polarisation of emitted light reports the rotation of a fluorescent probe.)

Series [2] concerns the target T1, T-STAR QUA1-KH (UniProt O75525).
T1 sequence (looked up): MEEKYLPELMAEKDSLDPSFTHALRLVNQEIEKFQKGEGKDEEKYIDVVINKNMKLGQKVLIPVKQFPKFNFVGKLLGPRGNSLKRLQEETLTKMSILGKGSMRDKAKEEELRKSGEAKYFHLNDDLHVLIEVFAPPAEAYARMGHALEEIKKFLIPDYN
Put plainly: fluorescence polarization. As to conditions: 0.1% beta-mercaptoethanol, protein 0-200 uM, temperature not stated, recombinant protein, residues 1-160, protein details: His tag (Ni-NTA) removed by TEV, label: fluorescein; for Kd: 10 mM Tris pH 7, 100 mM NaCl, 0.2 uM fluorescein-labelled RNA.

For some of these results: Where a protein sequence is shown, tags need not be part of it. For at least one entry, the source does not settle the construct or the ends of the probe. At least one verdict rests on a figure or table, not on a statement of the authors.

What is called Kd is the free concentration of one partner at which half of the binding sites on the other are occupied at equilibrium, for simple one-to-one binding. As for UUUUU, the Kd in series [1] and in series [2] was greater than 100 µM each time.

In the case of AUAAA, the binding result is recorded as “binds” in series [1] (FP: 10 mM Tris pH 7, 100 mM NaCl, 0.2 uM fluorescein-RNA, residues 97-260) and “binds” in series [2] (FP: 10 mM Tris pH 7, 100 mM NaCl, 0.2 uM fluorescein-RNA).

ACAAA: in series [1], the Kd was greater than 100 µM.

As for CCCCC, the Kd in series [1] and in series [2] was greater than 100 µM in each case.

For AUACA, the Kd in series [1] and in series [2] was greater than 100 µM each time.

Consider AUUAA, for which the Kd in series [1] and in series [2] was greater than 100 µM throughout.

Consider AUAUA, for which the Kd in series [1] and in series [2] was greater than 100 µM throughout.

Turning to AUCAA, the Kd in series [1] and in series [2] was greater than 100 µM each time.

Take AUAAC: the Kd in series [1] was greater than 100 µM.
